Data: PubChem BioAssay AID504444 (National Center for Advancing Translational Sciences (NCATS), 2011)
Several values for one entry are separate records, joined by “and”; a condition that tells them apart may be missing. Identical values can stand only once. About 7,500 (2.1%) of roughly 360,000 compounds were called active. This list was built around the results that the source calls inconclusive (neither active nor inactive); the mix of calls is not that of the screen. Calls follow the shape of the dose curve; as a rule, active = well fitted inhibition curve with a large enough effect; inconclusive = small, poorly fitted or top-dose-only effect, or effect the other way; inactive = flat fitted curve, though single readings scatter. Potencies of inconclusive entries are doubtful fits and often do not repeat.

assay: Nrf2 qHTS screen for inhibitors; conditions: A549 ARE-Fluc reporter, luciferase luminescence, 18-24 h; series mostly up to 46 µM; also: nearly all actives have a fitted effect of over 60% in size
Procedure, shortened: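 A549 ARE_Fluc cells, 5000/well, 5% FBS OPTI-MEM; compounds in dose-response, 18-24 h at 37 °C/5% CO2; CellTiter-Fluor viability read (Ex 405/Em 525), then BugLite luciferase luminescence = Nrf2 activity.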
Potency is read from the fitted curve at half-maximal effect.

| Structure (SMILES) | Potency |
| --- | --- |
| CCOc1ccc(NS(=O)(=O)c2ccc(C(=O)N3CC(C)OC(C)C3)cc2)cc1 (stereo not drawn) | inactive |
| COc1ccc(C(=O)NCCn2ccc3ccccc32)c(OC)c1 | inconclusive: 20.6 µM [activator, partial curve] |
| COc1ccc(Br)cc1C(=O)Nc1ccc(N2CCCC2)cc1 | inconclusive: 0.082 µM [activator, full curve, poor fit] |
| COC(=O)c1ccccc1N=Nc1c(C)[nH][nH]c1=O | inconclusive: 0.058 µM [falling, full curve, poor fit] |
| COc1ccccc1NC(=O)Nc1ccc(Cl)c(S(=O)(=O)Nc2ccccc2OC)c1 | inconclusive: 20.6 µM [falling, partial curve, poor fit] |
| CCN(c1nc(C)cc(OC)n1)S(=O)(=O)c1ccccc1 | inconclusive: 32.6 µM [falling, partial curve, poor fit] |
| COC(=O)C1=C(C)N(Cc2ccc(OC)cc2)C(=O)/C1=C\c1ccco1 | inconclusive: 7.31 µM [falling, partial curve, poor fit] |
| NC(=O)COC(=O)c1ccc(NS(=O)(=O)c2ccc3c(c2)OCCO3)cc1 | inconclusive: 10.3 µM [falling, partial curve, poor fit] |
| C=CCn1c(=N)n(CC(=O)c2ccc(Br)cc2)c2ccccc21 | inconclusive: 29.1 µM [falling, single point] |
| COC(=O)c1ccccc1NC(=O)NCCc1ccccc1OC | inconclusive: 16.4 µM [activator, partial curve, poor fit] |
| CCCCCn1cnc2c(sc3nc4c(cc32)CSC(C)(C)C4)c1=O | inconclusive: 2.59 µM [activator, full curve, poor fit] |
| COc1cc2c(cc1OC)CN(C(=O)c1ccc(S(=O)(=O)N(C)c3ccccc3)cc1)CC2 | inconclusive: 23.1 µM [falling, partial curve, poor fit] |
| Cc1ccc(-n2ncc3c2CC(C)(C)CC3NC(=O)CCc2cnn(C)c2)cc1 (stereo not drawn) | inconclusive: 6.51 µM [falling, full curve] |
| Cc1cc([N+](=O)[O-])ccc1NC(=O)C[n+]1ccc(N(C)C)cc1 | inconclusive: 13 µM [falling, partial curve, poor fit] |
| CCOc1ccccc1NC(=O)n1ncc2c(C)cccc21 | inconclusive: 18.4 µM [activator, single point] |
| CO/N=C(\N)c1nonc1N | inconclusive: 0.0073 µM [activator, full curve, poor fit] |
| COc1ccc(-n2cc(-c3ccc4c(c3)OCO4)n(CC(=O)Nc3cc(Cl)ccc3C)c2=O)cc1 | inconclusive: 16.4 µM [falling, single point] |
| O=C(Cc1ccc(F)cc1)N1CCN(c2ccc([N+](=O)[O-])cc2)CC1 | inconclusive: 14.6 µM [falling, single point] |
| O=C(CSc1nnc2ccccn12)Nc1ccccc1Cl | inconclusive: 11.6 µM [activator, partial curve] |
| O=C(CSc1nc2cc(Cl)ccc2o1)NCCc1ccccc1 | inconclusive: 16.4 µM [falling, single point] |
| CCCCCC(=O)Nc1cccc(S(=O)(=O)NC2=NCCC2)c1 | inactive |
| COc1ccc(-n2nc3ccc(NC(=O)c4cccc(OCCC(C)C)c4)cc3n2)cc1 | inactive |
| CC(=O)Nc1cccc(C(=O)OC(C(=O)c2ccc(C)cc2)c2ccccc2)c1 (stereo not drawn) | inconclusive: 23.1 µM [falling, single point] |

| Structure (SMILES) | Potency |
| --- | --- |
| CCOc1ccc(CNC(=O)C2CCN(c3nc4ccccc4nc3C(F)(F)F)CC2)cc1OC | inactive |
| CCC(=O)NC(c1ccc(C)cc1)c1ccc2cccnc2c1O (stereo not drawn) | inconclusive: 18.4 µM [falling, single point] and inconclusive: 29.1 µM [falling, single point] |
| Nc1cc(-c2ccc(Cl)cc2)nn1-c1ccccc1 | inconclusive: 18.4 µM [activator, partial curve] |
| Cc1cc(/C(N)=N/OC(=O)c2ccccc2Cl)no1 | inconclusive: 20.6 µM [activator, partial curve] |
| CSc1cccc(NC(=S)N(Cc2ccc(C)cc2)Cc2cccnc2)c1 | inconclusive: 18.4 µM [falling, single point] |
| CC1CCN(c2oc(-c3cccs3)nc2S(=O)(=O)c2ccccc2)CC1 | inconclusive: 23.1 µM [falling, single point] |
| Cc1nc2ccccc2cc1C(=O)NCc1ccccc1 | inconclusive: 16.4 µM [falling, partial curve] |
| CCN(Cc1ccccc1)c1ccccc1 | inactive |
| CCOC(=O)c1cnc2c(ccc3ccccc32)c1Nc1cccc(Cl)c1 | inactive |
| CC(CCc1ccccc1)NC(=O)COC(=O)c1ccc([N+](=O)[O-])cc1 (stereo not drawn) | inactive |
| C=CCn1c(-c2cccs2)nc2nc3ccccc3nc21 | inconclusive: 8.2 µM [activator, partial curve] |
| COc1ccc(CCNC(=O)c2cnc3sc(N4CCOCC4)nn3c2=O)cc1 | inactive |
| Cc1ccccc1C(=O)Nc1ccc(Br)c(C)n1 | inconclusive: 5.17 µM [activator, partial curve, poor fit] |
| CCCS(=O)(=O)N1CCC(n2c(C)nc3cccnc32)CC1 | inactive |
| Cc1cccc(-c2noc(CN(C(=O)/C=C/c3ccccc3Cl)C(C)C)n2)c1 | inactive |
| CCCCCn1c(=O)[nH]c2cc(C(=O)NCCN(CC)CC)ccc2c1=O | inconclusive: 29.1 µM [activator, single point] |
| O=C(c1ccco1)N1CCN(c2nc(C3CC3)nc3sc4c(c23)CCCC4)CC1 | active: 23.1 µM |
| CCSc1nnc(NC(=O)C(C(F)(F)F)C(F)(F)F)s1 | inactive |
| C#Cc1ccc([C@H]2C=C(C(=O)O)O[C@@H](OCc3ccc(CO)cc3)C2)cc1 | inactive |
| Cc1nn(-c2ccccn2)c2nc(-c3cccs3)cc(C(=O)N3CCOCC3)c12 | inconclusive: 9.2 µM [falling, partial curve, poor fit] |
| CCc1ccc(/C=C\C(=O)N2CCc3ccccc3C2)cc1 | inconclusive: 23.1 µM [activator, partial curve, poor fit] |
| S=C(NCc1ccco1)NCc1ccco1 | inactive |
| Cc1nn(Cc2cccc(Oc3ccccc3)c2)c(C)c1NC(=O)NC12CC3CC(CC(C3)C1)C2 | inconclusive: 29.1 µM [falling, single point] |

| Structure (SMILES) | Potency |
| --- | --- |
| CCOC(=O)c1cnc2ccc(OC)cc2c1Nc1ccc(OCc2ccccc2Cl)cc1 | inconclusive: 29.1 µM [falling, single point] |
| COCC(C)n1c(SC(C)C(=O)NC2CCCCC2C)nc2ccccc2c1=O (stereo not drawn) | inactive |
| CN(CC(=O)Nc1ccc(Cl)c(C(F)(F)F)c1)C(=O)c1cnccn1 | inconclusive: 18.4 µM [falling, partial curve, poor fit] |
| CN(Cc1ccc(F)cc1)C(=O)CNC(=O)c1ccc2c(c1)OCO2 | inconclusive: 0.0411 µM [activator, full curve, poor fit] |
| COc1ccc(N=c2oc3c(OC)cccc3cc2C(=O)NCc2ccco2)c(OC)c1 | inconclusive: 29.1 µM [falling, single point] |
| COc1ccc([C@H]2CC(=O)C=C(c3cc(F)ccc3F)C2)cc1OC | inconclusive: 13 µM [falling, partial curve, poor fit] |
| COc1ccc(C)cc1NC(=O)c1nnn(Cc2cccc(Br)c2)c1N | inconclusive: 3.26 µM [falling, full curve, poor fit] |
| COc1cc(CNc2ccc(CNc3ncn[nH]3)cc2)ccc1OCC(=O)NC(C)(C)C | active: 16.4 µM |
| CC(C)CCNC(=O)NC(=O)COc1ccccc1C#N | inconclusive: 18.4 µM [activator, single point] |
| CCn1cnc2c(Nc3cc(F)cc(F)c3)nc(C#N)nc21 | inconclusive: 18.4 µM [falling, partial curve] |
| Cc1cc(Nc2nc3ccccc3nc2Cl)n(-c2ccc([N+](=O)[O-])cc2)n1 | inconclusive: 25.9 µM [falling, single point] |
| Cc1ccc(S(=O)(=O)N2CCC(C)CC2)c([N+](=O)[O-])c1 | inconclusive: 29.1 µM [falling, single point] |
| CCC(=O)N1CCc2cc(S(=O)(=O)NCc3ccc(C)cc3)ccc21 | inconclusive: 32.6 µM [falling, single point] |
| c1ccc(-c2nnc(-c3ccncc3)o2)cc1 | inconclusive: 29.1 µM [activator, single point] |
| CCOc1ccc(N2CC(C)Cn3c2nc2c3c(=O)n(Cc3c(F)cccc3Cl)c(=O)n2C)cc1 (stereo not drawn) | inconclusive: 0.082 µM [activator, full curve, poor fit] |
| O=C(Cn1cc(C(=O)c2ccco2)c2ccccc21)Nc1ccccc1 | inconclusive: 16.4 µM [falling, partial curve, poor fit] |
| COc1ccc([C@H]2CC(=O)C=C(c3cccc(Br)c3)C2)cc1OC | inactive |
| Nc1ccc(CSc2ccc(Cl)cc2)c(Cl)c1 | inactive |
| O=C(NC(C(=O)c1ccccc1)c1ccccc1)c1ccccc1 (stereo not drawn) | inconclusive: 29.1 µM [activator, single point] |
| CC12CC3(C)CC(C)(C1)CC(C(N)=O)(C2)C3 | inactive |
| O=C(CC12CC3CC(CC(C3)C1)C2)Nc1nncs1 | inconclusive: 6.51 µM [falling, full curve, poor fit] |
| CCOC(=O)N1CCN(Cc2nc3cc(NC(=O)c4ccccc4Cl)ccc3n2C(C)C)CC1 | inactive |
